# Measured values as given in article PMC9897665.
# Sequences of proteins named here, by UniProt entry; tags and fusion partners are left off. Residues count along the entry.
# UniProt Q8K2B3, residues 43-664: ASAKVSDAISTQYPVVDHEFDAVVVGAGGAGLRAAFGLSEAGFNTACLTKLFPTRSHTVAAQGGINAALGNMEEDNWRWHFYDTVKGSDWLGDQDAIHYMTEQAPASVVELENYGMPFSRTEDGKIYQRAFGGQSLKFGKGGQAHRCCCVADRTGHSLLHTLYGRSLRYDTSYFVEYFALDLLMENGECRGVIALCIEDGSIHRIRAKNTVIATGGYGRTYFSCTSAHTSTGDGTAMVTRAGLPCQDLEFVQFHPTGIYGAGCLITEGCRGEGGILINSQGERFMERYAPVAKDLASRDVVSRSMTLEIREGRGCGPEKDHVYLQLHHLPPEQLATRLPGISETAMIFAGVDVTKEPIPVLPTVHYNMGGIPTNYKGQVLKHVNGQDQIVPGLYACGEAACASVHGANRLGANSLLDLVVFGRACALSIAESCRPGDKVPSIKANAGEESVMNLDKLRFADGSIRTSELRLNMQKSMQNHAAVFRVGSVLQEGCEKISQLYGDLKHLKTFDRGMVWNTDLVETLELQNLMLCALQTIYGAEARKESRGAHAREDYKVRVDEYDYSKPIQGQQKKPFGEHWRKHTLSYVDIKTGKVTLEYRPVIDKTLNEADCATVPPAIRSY
# UniProt Q03265, residues 44-553: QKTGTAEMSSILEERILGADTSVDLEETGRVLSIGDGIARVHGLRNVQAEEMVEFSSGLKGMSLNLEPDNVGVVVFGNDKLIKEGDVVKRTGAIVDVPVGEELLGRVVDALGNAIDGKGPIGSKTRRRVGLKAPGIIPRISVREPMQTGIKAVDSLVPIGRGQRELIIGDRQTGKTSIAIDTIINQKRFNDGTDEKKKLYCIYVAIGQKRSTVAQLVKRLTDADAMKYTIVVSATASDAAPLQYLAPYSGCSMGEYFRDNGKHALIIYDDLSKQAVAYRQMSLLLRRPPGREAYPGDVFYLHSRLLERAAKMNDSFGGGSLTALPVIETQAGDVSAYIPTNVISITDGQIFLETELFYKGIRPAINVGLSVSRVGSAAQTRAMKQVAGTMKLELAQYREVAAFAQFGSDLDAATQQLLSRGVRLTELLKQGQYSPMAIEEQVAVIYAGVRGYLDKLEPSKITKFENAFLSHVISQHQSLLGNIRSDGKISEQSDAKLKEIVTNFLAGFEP
# UniProt Q9D6J5, residues 29-186: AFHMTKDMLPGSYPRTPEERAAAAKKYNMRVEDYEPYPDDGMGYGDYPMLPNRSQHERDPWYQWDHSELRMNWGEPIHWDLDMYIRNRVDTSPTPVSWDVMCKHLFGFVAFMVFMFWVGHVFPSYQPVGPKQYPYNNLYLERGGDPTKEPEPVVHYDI
# Results are given in words; binding and its absence hold for the method and conditions named. Binding seen in cells or lysates may run through a third protein. Some entries that bind do so weakly or less than the wild type.
# B1: Complex III cytochrome b-c1 complex subunit 2 (protein, UniProt Q9DB77 15-453)
# chain: SLKVAPKVKTSAAPGGVPLQPQDLEFTKLPNGLVIASLENYAPLSRIGLFVKAGSRYEDSNNLGTSHLLRLASSLTTKGASSFKITRGIEAVGGKLSVTATRENMAYTVEGIRSDIEILMEFLLNVTTAPEFRRWEVAALRSQLKIDKAVAFQNSQTRIIENLHDVAYKNALANPLYCPDYRMGKITSEELHYFVQNHFTSARMALVGLGVSHSVLKQVAEQFLNMRGGLGLAGAKAKYRGGEIREQNGDNLVHAAIVAESAAIGNAEANAFSVLQHLLGAGPHIKRGNNTTSLLSQSVAKGSHQPFDVSAFNASYSDSGLFGIYTISQAAAAGEVINAAYNQVKAVAQGNLSSADVQAAKNKLKAGYLMSVETSEGFLSEIGSQALAAGSYMPPSTVLQQIDSVADADVVKAAKKFVSGKKSMAASGNLGHTPFLDEL
# B2: succinate dehydrogenase subunit B (protein, UniProt Q9CQA3 31-282)
# chain: AQTAAAAAPRIKKFAIYRWDPDKTGDKPRMQTYEVDLNKCGPMVLDALIKIKNEVDSTLTFRRSCREGICGSCAMNINGGNTLACTRRIDTDLSKVSKIYPLPHMYVIKDLVPDLSNFYAQYKSIEPYLKKKDESQEGKQQYLQSIEDREKLDGLYECILCACCSTSCPSYWWNGDKYLGPAVLMQAYRWMIDSRDDFTEERLAKLQDPFSVYRCHTIMNCTQTCPKGLNPGKAIAEIKKMMATYKEKRALA
# Molecular target: succinate dehydrogenase subunit A (mouse (endogenous in iBMDM)) (UniProt Q8K2B3)
# Test: co-IP; SDHA antibody (14865-1-AP, 5 ug) cross-linked to protein A/G agarose (Pierce Cross-link IP kit); whole-cell extracts of iBMDM in 1% dodecyl maltoside, overnight at 4°C; control IgG; cells unstimulated or stimulated with LPS (200 ng/ml) for 8 or 24 hours; immunoblot of ATP5A, UQCRC2, SDHA, SDHB, NDUFB8
row,binding,Molecule
1,no binding,Complex V ATP synthase F1 subunit alpha (from UniProt Q03265 44-553)
2,no binding,Complex I NADH dehydrogenase ubiquinone beta subcomplex subunit 8 (from UniProt Q9D6J5 29-186)
3,no binding,B1
4,binds,B2
